Values from PubChem BioAssay AID493246 (Drosophila RNAi Screening Center, 2011)
Aim: 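Identify essential fly genes by loss of cell viability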 (primary screen). System: Drosophila Kc and S2R+ cells. Knock-down reagent: long dsRNA against Drosophila genes. Detection: 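Cell number per well after knock-down, printed as raw plate values; calls were based on per-plate z-scores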. Direction: Kc cell number and S2R+ cell number: higher = more cells remaining. Active means: 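Counted as a hit if cell number falls by a z-score of at least 3 within its plate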.
In all, the deposit lists about 21,000 reagents; shown is an unselected part of those with a known target gene and a result. In the full data, 429 (2%) are marked active. 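Values are raw and not normalised between plates; calls rest on per-plate z-scores that were not deposited.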 Unmarked entries are inactive. Names joined by + are all predicted targets of the reagent. Not stated in the record: the amount of reagent, the time to read-out.

| target | DRSC id | Kc cell number, rep 1 | Kc cell number, rep 2 | S2R+ cell number, rep 1 | S2R+ cell number, rep 2 |
| --- | --- | --- | --- | --- | --- |
| Cadps (Calcium-dependent secretion activator) | DRSC21057 | 1.44e6 | 1.48e6 | 1.04e6 | 1.10e6 |
| CR42785 (pseudo) | DRSC04962 | 1.50e6 | 1.71e6 | 1.00e6 | 1.07e6 |
| CG16903 | DRSC18561 | 1.52e6 | 1.49e6 | 9.71e5 | 1.15e6 |
| Cyp6d2 (Cytochrome P450 6d2) | DRSC04606 | 1.33e6 | 1.28e6 | 9.88e5 | 1.10e6 |
| CheA75a (Chemosensory protein A 75a) | DRSC10807 | 1.52e6 | 1.48e6 | 1.25e6 | 1.33e6 |
| Jabba | DRSC06521 | 1.40e6 | 1.45e6 | 1.31e6 | 1.49e6 |
| mtm (myotubularin) | DRSC03576 | 1.17e6 | 1.30e6 | 4.47e5 | 6.98e5 |
| Uxt (Uxt prefoldin-like subunit) | DRSC01962 | 1.55e6 | 1.63e6 | 1.23e6 | 1.30e6 |
| Scox (Synthesis of cytochrome c oxidase) | DRSC03117 | 1.35e6 | 1.35e6 | 9.52e5 | 1.08e6 |
| CG14563 | DRSC11724 | 1.61e6 | 2.13e6 | 1.32e6 | 1.37e6 |
| Col4a1 (Collagen type IV alpha 1) | DRSC03291 | 1.30e6 | 1.32e6 | 5.75e5 | 7.69e5 |
| CG2017 | DRSC12293 | 1.61e6 | 1.66e6 | 1.26e6 | 1.34e6 |
| CG13318 | DRSC14581 | 1.56e6 | 1.97e6 | 1.26e6 | 1.35e6 |
| CG5070 | DRSC19932 | 1.54e6 | 1.54e6 | 1.12e6 | 1.18e6 |
| orb (oo18 RNA-binding protein) | DRSC17021 | 4.31e5 (active) | 9.99e5 | 4.28e5 | 5.32e5 |
| CG5323 | DRSC06929 | 1.57e6 | 1.63e6 | 1.19e6 | 1.29e6 |
| CG2104 | DRSC12304 | 1.36e6 | 1.56e6 | 1.22e6 | 1.29e6 |
| azot (ahuizotl) | DRSC06051 | 1.44e6 | 1.55e6 | 1.27e6 | 1.36e6 |
| CG5276 | DRSC15759 | 1.44e6 | 1.52e6 | 1.27e6 | 1.29e6 |
| CG15293 | DRSC01919 | 1.71e6 | 1.91e6 | 1.19e6 | 1.36e6 |
| Gss1 + Gss2 | DRSC20008 | 1.61e6 | 1.57e6 | 1.13e6 | 1.20e6 |
| PCNA2 (Proliferating cell nuclear antigen 2) | DRSC02030 | 1.65e6 | 1.74e6 | 1.37e6 | 7.67e5 |
| CG31274 + MESK4 | DRSC13202 | 1.60e6 | 1.77e6 | 1.15e6 | 1.30e6 |
| CG15923 | DRSC15129 | 1.46e6 | 1.67e6 | 1.13e6 | 1.20e6 |
| mbm (mushroom body miniature) | DRSC00319 | 1.31e6 | 1.33e6 | 9.39e5 | 9.31e5 |
| Sec13 (Secretory 13) | DRSC14144 | 1.52e6 | 1.70e6 | 1.27e6 | 1.36e6 |
| Neb-cGP | DRSC17991 | 1.58e6 | 1.56e6 | 1.04e6 | 1.14e6 |
| CG4666 | DRSC18379 | 1.57e6 | 1.58e6 | 1.12e6 | 1.25e6 |
| Tsp42Eb + CG30160 | DRSC04961 | 1.47e6 | 1.55e6 | 1.00e6 | 1.12e6 |
| Tsp42Eb + CG30160 | DRSC06791 | 1.60e6 | 1.66e6 | 1.36e6 | 1.52e6 |
| CG5966 | DRSC18394 | 5.27e5 | – | 8.43e5 | – |
| CG4161 | DRSC01930 | 1.45e6 | 1.56e6 | 1.16e6 | 1.31e6 |
| CLIP-190 (Cytoplasmic linker protein 190) | DRSC03283 | 1.18e6 | 1.34e6 | 1.24e6 | 1.22e6 |
| cato (cousin of atonal) | DRSC07589 | 1.54e6 | 1.66e6 | 1.22e6 | 1.38e6 |
| CG30089 | DRSC06126 | 1.43e6 | 1.49e6 | 1.12e6 | 1.11e6 |
| CG30089 | DRSC06127 | 4.15e5 (active) | 9.01e5 | 5.31e5 | 6.11e5 |
| CG30089 | DRSC06267 | 1.69e6 | 2.00e6 | 1.58e6 | 1.72e6 |
| Np (Notopleural) | DRSC06089 | 1.63e6 | 1.60e6 | 1.36e6 | 1.54e6 |
| Np (Notopleural) | DRSC07094 | 1.68e6 | 1.79e6 | 1.39e6 | 1.51e6 |
| Kat60 (Katanin 60) | DRSC12378 | 1.65e6 | 1.88e6 | 1.32e6 | 1.46e6 |
| Nlg2 (Neuroligin 2) | DRSC03578 | 1.50e6 | 1.36e6 | 1.13e6 | 1.23e6 |
| kairos | DRSC19972 | 1.62e6 | 1.61e6 | 1.08e6 | 1.21e6 |
| Ufc1 (Ubiquitin-fold modifier conjugating enzyme 1) | DRSC07156 | 1.35e6 | 1.46e6 | 1.17e6 | 1.17e6 |
| CG7381 | DRSC16238 | 1.54e6 | 1.62e6 | 1.35e6 | 1.43e6 |
| Ge-1 | DRSC02938 | 1.24e6 | 1.31e6 | 1.06e6 | 1.16e6 |
| betaTub97EF (beta-Tubulin at 97EF) | DRSC15666 | 1.66e6 | 1.70e6 | 8.87e5 | 1.03e6 |
| betaTub97EF (beta-Tubulin at 97EF) | DRSC15667 | 1.54e6 | 1.56e6 | 9.75e5 | 1.16e6 |
| betaTub97EF (beta-Tubulin at 97EF) | DRSC15668 | 1.51e6 | 1.52e6 | 1.00e6 | 1.13e6 |
| mRpS30 (mitochondrial ribosomal protein S30) | DRSC20107 | 5.66e5 | – | 7.60e5 | – |
| rdog (red dog mine) | DRSC14431 | 4.88e5 | – | 8.14e5 | – |
| CG14257 | DRSC14752 | 1.44e6 | 1.47e6 | 9.70e5 | 1.09e6 |
| Ms (Myosuppressin) | DRSC16041 | 1.45e6 | 1.56e6 | 1.08e6 | 1.17e6 |
| Gr47b (Gustatory receptor 47b) | DRSC05275 | 1.41e6 | 1.43e6 | 9.93e5 | 1.13e6 |
| Ir10a (Ionotropic receptor 10a) | DRSC18891 | 1.36e6 | 1.52e6 | 1.09e6 | 1.11e6 |
| Ir10a (Ionotropic receptor 10a) | DRSC19478 | 1.61e6 | 1.53e6 | 1.13e6 | 1.23e6 |
| Ir10a (Ionotropic receptor 10a) | DRSC19479 | 1.57e6 | 1.52e6 | 1.11e6 | 1.28e6 |
| Gr21a (Gustatory receptor 21a) | DRSC00366 | 1.61e6 | 1.66e6 | 1.08e6 | 1.22e6 |
| betaTub56D (beta-Tubulin at 56D) | DRSC07583 | 1.68e6 | 1.60e6 | 8.89e5 | 1.05e6 |
| CG32236 | DRSC08117 | 1.44e6 | 1.39e6 | 9.94e5 | 1.19e6 |

A few values from the list.
Under “Kc cell number, rep 2”, Kat60 (Katanin 60) [DRSC12378] reads 1.88e6
For “Kc cell number, rep 1”, CLIP-190 (Cytoplasmic linker protein 190) [DRSC03283] has 1.18e6
CG14563 [DRSC11724], S2R+ cell number, rep 2 = 1.37e6
For “S2R+ cell number, rep 2”, betaTub97EF (beta-Tubulin at 97EF) [DRSC15667] is entered as 1.16e6
For “S2R+ cell number, rep 1”, CG13318 [DRSC14581] has 1.26e6
Value of betaTub97EF (beta-Tubulin at 97EF) [DRSC15666] under “S2R+ cell number, rep 1”: 8.87e5
